According to PMC11633376:
These are yes or no findings as the source states them, for the method shown. In cells and extracts the contact can be indirect. These calls come from enrichment with a bait or labelling near it, and not all partners need be listed.

Sequences of proteins named here, by UniProt entry; tags and fusion partners are left off.
UniProt A0R0B3: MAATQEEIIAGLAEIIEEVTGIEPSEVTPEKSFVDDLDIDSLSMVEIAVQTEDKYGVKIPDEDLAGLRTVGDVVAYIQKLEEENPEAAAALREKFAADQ

Biological target: Mycobacterium smegmatis mycobacterial membrane protein large 5 (MmpL5) transporter (M. smegmatis) (UniProt A0QS80)
Test: affinity purification with mass spectrometry; C-terminally His-tagged MmpL5 overproduced in M. smegmatis MC2-155, extracted with 1% LMNG, purified by Ni2+ affinity and Superdex 200; endogenous AcpM found in the sample by proteomics

In the case of “Mycobacterium smegmatis meromycolate extension acyl carrier protein M (AcpM) (from UniProt A0R0B3 1-99)”, the binding is reported as “binds”.
